Source: PubChem BioAssay AID504444 (National Center for Advancing Translational Sciences (NCATS), 2011)
About 7,500 (2.1%) of roughly 360,000 compounds were called active. Inconclusive results, whose numbers are uncertain, are shown with a selection of clear calls. Calls come from the whole dose curve; as a rule, active = well fitted inhibition curve with a large enough effect; inconclusive = small, poorly fitted or top-dose-only effect, or effect the other way; inactive = flat fitted curve, though single readings scatter. Potencies beside an inconclusive call are fits to weak or partial responses and may not hold up.

Test: Nrf2 qHTS screen for inhibitors; note: nearly all actives have a fitted effect of over 60% in size
Conditions: A549 ARE-Fluc reporter, luciferase luminescence, 18-24 h; activity change, negative = inhibition: at 46 µM (top of the series)
Outline: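 Reporter: ARE-Fluc in A549. Exposure: 18-24 h, 37 °C, 5% CO2, 5% FBS OPTI-MEM. Readouts: fluorescent cytotoxicity (CellTiter-Fluor), then luminescent Nrf2 signal after BugLite.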
% is set by controls: 0 for no effect and ±100 for the full control effect; potency is the fitted concentration of half-maximal effect.

| SMILES | Potency | activity change, negative = inhibition |
| --- | --- | --- |
| COc1ccc(OC)c(NC(=O)Nc2ccc(Cl)cc2)c1 | inconclusive: 25.9 µM [falling, partial curve, poor fit] |  |
| Cc1ccc2nc(NC(=O)c3ccc4c(c3)OCO4)sc2c1 | inconclusive: 0.731 µM [activator, full curve] |  |
| O=C(COC(=O)c1cncc(Br)c1)Nc1nc(-c2ccc(F)cc2)cs1 | inconclusive: 9.2 µM [activator, partial curve] |  |
| CN(Cc1nc(-c2cccnc2)no1)S(=O)(=O)c1ccc2ccccc2c1 | inconclusive: 32.6 µM [falling, partial curve, poor fit] |  |
| CCCNc1c(NS(=O)(=O)c2cccs2)c(=O)oc2ccccc12 | inconclusive: 25.9 µM [falling, partial curve] |  |
| COc1cc(/C=N\NC(=O)c2ccc(-c3ccccc3)cc2)cc(OC)c1OC(C)=O | active: 13 µM |  |
| COc1cc(Cl)ccc1OCc1cc(C(=O)NC(C)Cc2cccnc2)no1 (configuration not stated) | inconclusive: 18.4 µM [activator, partial curve] |  |
| COc1cc(OC)cc(-c2c(-c3cccs3)c3cc(-c4ccn[nH]4)ccc3n2C)c1 | inconclusive: 20.6 µM [falling, single point] |  |
| COC(=O)c1sccc1NC(=O)CSc1cccc(Cl)c1Cl | inconclusive: 23.1 µM [falling, partial curve, poor fit] |  |
| CCC1Oc2ccccc2N(CC(=O)NCCc2ccc(OC)c(OC)c2)C1=O (configuration not stated) | inconclusive: 9.2 µM [falling, partial curve, poor fit] |  |
| Cc1ccn2c(NC3CCCCC3)c(-c3cccc(SC4CCCCC4)c3)nc2c1 | inconclusive: 29.1 µM [falling, single point] |  |
| NNc1nc(-c2ccccc2)nc2sc3c(c12)CCCC3 | inconclusive: 1.46 µM [activator, full curve] |  |
| O=C(NCCc1ccccc1)c1cnc2sc(N3CCCCC3)nn2c1=O | inconclusive: 18.4 µM [falling, single point] |  |
| Cc1nnc(NC(=O)CSc2cn(CCNC(=O)c3ccccc3)c3ccccc23)s1 |  | inactive: 8.13% |
| COC(=O)c1cnc(Oc2ccc(NC(=O)NC(=O)c3c(F)cccc3F)cc2)cc1C(F)(F)F | inconclusive: 23.1 µM [activator, single point] |  |
| O=C(COc1ccc2c(c1)OCO2)Nc1cccc(F)c1 | inconclusive: 23.1 µM [activator, partial curve] |  |
| CCOC(=O)c1c(C)[nH]c(C(=O)OCc2ccc(C)cc2)c1C | inconclusive: 13 µM [activator, partial curve, poor fit] |  |
| O=C(NCc1ccccn1)c1cccc(S(=O)(=O)NCc2ccccc2)c1 |  | inactive: 0.987% |
| COC(=O)Cn1c(=O)c2c(n(Cc3ccccc3)c1=O)N/C(=C/c1ccc(Br)cc1)C2=O | inconclusive: 29.1 µM [falling, single point] |  |
| C/C(Cn1nnc([N+](=O)[O-])n1)=N\NC(=O)c1ccc(Cl)c(Cl)c1 | inconclusive: 29.1 µM [falling, single point] |  |
| NNc1nc2ccc(Cl)cc2s1 | inconclusive: 2.59 µM [activator, partial curve, poor fit] |  |
| O=c1[nH]c(Nc2ccc3c(c2)OCCO3)nnc1Cc1ccc(Cl)cc1 | inconclusive: 16.4 µM [activator, partial curve] |  |
| CCCCNc1ccc(C(CC(N)=O)NC(=O)c2ccccc2)cc1[N+](=O)[O-] (configuration not stated) | inconclusive: 23.1 µM [falling, partial curve, poor fit] |  |

Ordered by number of heavy atoms (falling): some entries from above

| SMILES | Potency | activity change, negative = inhibition |
| --- | --- | --- |
| Cc1nnc(NC(=O)CSc2cn(CCNC(=O)c3ccccc3)c3ccccc23)s1 |  | inactive: 8.13% |
| C/C(Cn1nnc([N+](=O)[O-])n1)=N\NC(=O)c1ccc(Cl)c(Cl)c1 | inconclusive: 29.1 µM [falling, single point] |  |
| Cc1ccc2nc(NC(=O)c3ccc4c(c3)OCO4)sc2c1 | inconclusive: 0.731 µM [activator, full curve] |  |

Additional entries

| SMILES | Potency | activity change, negative = inhibition |
| --- | --- | --- |
| COc1cccc(-c2nnc3n2N=C(C(C)(C)C)CS3)c1 | active: 7.31 µM |  |
| S=C(N/N=C/c1ccc2ncccc2c1)Nc1ccccc1 | active: 13 µM |  |
| O=C(NNS(=O)(=O)c1ccc(F)cc1)C1CCCCC1 | inconclusive: 1.64 µM [falling, full curve, poor fit] |  |
| O=C(Cc1n[nH]c(=O)c2ccccc12)Nc1cccc(S(=O)(=O)N2CCCC2)c1 | inconclusive: 9.2 µM [falling, partial curve, poor fit] |  |
| O=C(CC1SC(=O)N(Cc2cccc3ccccc23)C1=O)Nc1nccs1 (configuration not stated) | inconclusive: 29.1 µM [falling, single point] |  |
| Fc1ccc(C(CCCn2nnc(-c3cccnc3)n2)c2ccc(F)cc2)cc1 | inconclusive: 0.103 µM [falling, full curve] |  |
| Cc1cc(C)c2nc(N3CCOCC3)c(C#N)cc2c1 |  | inactive: 1.13% |
| Oc1ccc(CNc2ccccc2)c2cccnc12 | active: 5.17 µM |  |
| Cc1cccc(CSc2nnc(CCCCCN)o2)c1 | inconclusive: 11.6 µM [falling, partial curve, poor fit] |  |
| COc1ccc(CCn2c(C)nc3ccccc3c2=O)cc1OC | inconclusive: 7.31 µM [falling, partial curve, poor fit] |  |
| Cc1cc(CSc2ccccc2)ccc1NC(=O)COc1ccccc1 | inconclusive: 29.1 µM [falling, single point] |  |
| Cc1ccc(C)c(NC(=O)c2nnn(Cc3ccc(F)cc3Cl)c2N)c1 | inconclusive: 29.1 µM [falling, single point] |  |
| CCOc1ccc2oc(C(=O)OCC(=O)NC3CCCC3)c(C)c2c1 | inconclusive: 20.6 µM [activator, partial curve] |  |
| CCOc1ncccc1C(=O)OCC(=O)c1cccc(Br)c1 | inconclusive: 2.59 µM [activator, full curve, poor fit] |  |
| COc1ccc(C(=O)n2nnc3ccccc32)cc1Br |  | inactive: 5.42% |
| COc1ccc(CCNC(=O)CCS(=O)(=O)c2cc3c(cc2Cl)NC(=O)CO3)cc1OC | inconclusive: 16.4 µM [activator, partial curve] |  |
| C=CCn1c(Cc2c[nH]c3ccccc23)nnc1SCC(=O)NCc1ccccc1 |  | inactive: 2.44% |
| CCOc1cc(CNCCSc2nnnn2C)cc(Br)c1OCc1ccccc1F | active: 23.1 µM |  |
| CCN(CC)c1ccc2cc(C(C)=O)c(=O)oc2c1 | inconclusive: 29.1 µM [activator, single point] |  |
| Cc1cc(C)n(CC(C)O)c(=O)c1C#N (configuration not stated) | inconclusive: 0.259 µM [falling, partial curve, poor fit] |  |
| CCc1nnc(SCC(=O)Nc2cccc(C(F)(F)F)c2)c2cc3oc(C)cc3n12 | inconclusive: 16.4 µM [falling, partial curve, poor fit] |  |
| CCCc1nn2cc(-c3ccc(C)c(C)c3)nc2s1 | inconclusive: 0.231 µM [activator, full curve] |  |
| COc1cccc(/C=C/C2=CC(C)(C)NC(=S)N2)c1 | inconclusive: 25.9 µM [activator, single point] |  |

| SMILES | Potency | activity change, negative = inhibition |
| --- | --- | --- |
| COc1ccc(-c2noc(CSc3nnc(Cc4ccccc4)n3-c3cccc(C)c3)n2)cc1 | active: 23.1 µM |  |
| CC(=O)c1ccc(S(=O)(=O)N(C)CC(=O)Nc2cc(C)on2)cc1 | inconclusive: 20.6 µM [activator, partial curve, poor fit] |  |
| c1ccc(SCc2cc(-c3ccccc3)no2)cc1 | inconclusive: 18.4 µM [activator, partial curve] |  |
| O=C(/C=C/Nc1ccccc1)C(F)(F)F | inconclusive: 4.11 µM [activator, full curve, poor fit] |  |
| c1ccc(NCCC2OCC3(CO2)COC(CCNc2ccccc2)OC3)cc1 (configuration not stated) | inconclusive: 20.6 µM [falling, partial curve, poor fit] |  |
| CCOC(=O)c1sc2nc(C)nc(SCC(=O)N(CC)C3CCS(=O)(=O)C3)c2c1C (configuration not stated) | inconclusive: 8.2 µM [falling, partial curve] |  |
| COc1cc(OC)c2c(OC)cccc2n1 |  | inactive: 12% |
| O=C(c1ccc2c(=O)n(Cc3ccccc3)c(=S)[nH]c2c1)N1CCCC1 | inconclusive: 16.4 µM [falling, partial curve, poor fit] |  |
| Cc1ccc(-c2cc(-c3ccccc3[N+](=O)[O-])[nH]n2)c(O)c1 | inconclusive: 23.1 µM [activator, single point] |  |
| O=C(C(=Cc1ccc(F)cc1)c1ccccc1)c1ccc(O)cc1 | inconclusive: 32.6 µM [falling, partial curve, poor fit] |  |
| Cc1cccc(CC2CC(=O)N(c3ccc([N+](=O)[O-])cc3)C2=O)c1 (configuration not stated) | inconclusive: 32.6 µM [activator, partial curve, poor fit] |  |
| CCS(=O)(=O)N1Cc2ccccc2CC1C(=O)NCC12CC3CC(CC(C3)C1)C2 (configuration not stated) |  | inactive: -0.671% |
| O=C(Cc1ccccc1)N1CCC2(CC1)NCCc1[nH]cnc12 | inconclusive: 29.1 µM [falling, single point] |  |
| C/C(=N/NC(=O)CNC(=O)C(c1ccccc1)c1ccccc1)c1ccco1 | inconclusive: 8.2 µM [falling, partial curve, poor fit] |  |
| CCNc1nc(C#N)nc(N2CCCCC2)n1 | active: 4.61 µM |  |
| CC(C)(O)C#Cc1ccc(CNC[C@H]2O[C@@H](n3cnc4c(N)ncnc43)[C@H](O)[C@@H]2O)s1 |  | inactive: -4.7% |
| COc1ccc(CNC(=O)c2nn(C)c3c2CS(=O)(=O)c2ccccc2-3)cc1 | inactive |  |
| Cc1ccc(C(=O)OCC(=O)N(Cc2ccccc2)C(C)C)cc1C |  | inactive: 0.239% |
| c1ccc(N2CCN(c3nc4cc5c(cc4s3)OCCO5)CC2)cc1 | inconclusive: 14.6 µM [falling, partial curve, poor fit] |  |
| O=C(CS(=O)CC(=O)NC12CC3CC(CC(C3)C1)C2)Nc1ccc(F)cc1 (configuration not stated) |  | inactive: 7.57% |
| COc1ccc(C(=O)C23CC4CC(C2)CC(C(=O)c2ccc(OC)cc2)(C4)C3)cc1 | inconclusive: 29.1 µM [falling, single point] |  |
